Measurements taken from the supplement of paper PMC3334620.
Over roughly 33,000 sequences, “E-score (-0.5 to 0.5)” has its median near -0.0059; the highest 2% begin near 0.26. The list shows a part of the results.

target: T1, Cin5 (UniProt P40917); test: PBM E-score (8-mer binding enrichment) (E-score (-0.5 to 0.5)); higher = stronger / more preferred TF binding; settings: protein concentration: 100 nM; construct: GST-full length
T1 sequence: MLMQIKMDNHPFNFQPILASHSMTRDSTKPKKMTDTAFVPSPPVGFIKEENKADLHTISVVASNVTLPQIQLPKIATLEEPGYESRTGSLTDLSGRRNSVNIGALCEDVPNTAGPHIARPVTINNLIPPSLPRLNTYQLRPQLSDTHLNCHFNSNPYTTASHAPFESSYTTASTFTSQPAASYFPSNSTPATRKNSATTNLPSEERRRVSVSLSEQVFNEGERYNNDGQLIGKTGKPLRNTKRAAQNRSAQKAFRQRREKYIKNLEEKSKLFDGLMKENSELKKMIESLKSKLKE
Experimental: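 Universal 'all 10-mer' protein binding microarrays (Agilent AMADID 015681) probed with GST-tagged S. cerevisiae TFs (full-length or DBD) made by in vitro transcription/translation (PURExpress), about 100-200 nM. Bound TF was detected with fluorescent anti-GST. Each ungapped 8-mer (which stands for itself and its reverse complement) is scored by the PBM enrichment score (E-score), a modified Wilcoxon-Mann-Whitney statistic from -0.5 to +0.5, computed with the Universal PBM Analysis Suite. Scale: above 0.35 generally sequence-specific binding.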

Sequence | PBM E-score
AATTACGT | 0.278
ATCCCCCA | -0.456
CAGCAGTA | -0.0487
GCATTACC | -0.113
CAGCTCTC | -0.256
TAGGACTA | -0.0766
AAATCTTG | 0.208
AAGACGGG | -0.104
AGACGGAC | -0.0722
GACCGTAA | -0.0305
CACAATAG | 0.0337
TAGCATAA | 0.0572
GGCCGGAA | -0.107
AACGTCGA | 0.0559
CAAACGTG | -0.0397
ACATATGG | 0.116
CTACAACC | -0.024
GGCGCAGA | 0.028
ACGGTAGC | -0.178
CTCGCTTC | -0.112
CCATTGTC | 0.0421
AAGTGCGG | 0.0174

Sequence | PBM E-score
AGCCGTAG | 0.00159
ATTGGGGG | -0.267
ACATGTTC | 0.0124
GCCAGTAA | -0.0664
ACAATAGA | -0.00396
ATTCCAAA | -0.0656
CGCACTCA | 0.0198
CGATAGAG | -0.169
TGACCACA | -0.0393
GGCCGGCA | 0.0384
ACTTCTAG | -0.232
AAACATAG | -0.0763
CGTCAGGC | -0.039
GAGGCCGA | -0.0924
CTCCCACC | -0.238
CGTCTAGA | -0.253
ACTTTATG | 0.0627
GCGTACGA | 0.012
TAATAGGA | 0.132
CGTGCTCA | 0.0471
CCACGACG | -0.00069
GATGCCAA | -0.127

Sequence | PBM E-score
CGGCCGCC | -0.164
AATTGTGC | 0.124
CCTATCGA | 0.0497
CCGCTCCC | -0.355
AGACTCAC | -0.217
ATAAGTAT | 0.072
CAGGTTAG | -0.109
CTTCGTTA | -0.0412
ATATCTAG | 0.0618
AGGGTTTA | -0.0833
TCTTTAAA | 0.0238
ATTGAGGG | -0.042
CAGCGCCA | -0.192
CAATTATC | 0.277
GTAGCGAA | 0.0365
ATTCGCCG | 0.205
CGCGTAAG | 0.176
CGACACCA | -0.038
AAGGGGCG | -0.216
AAGACCAA | -0.00577
GCGCTTCA | 0.0381
GAGACTGC | -0.0906

Sequence | PBM E-score
AAACTATG | -0.0142
ACGTTAAA | 0.103
CCCTGCGC | -0.159
ACTGATTA | 0.249
TCGTGTCA | -0.154
CGTGCTTC | 0.162
CGTTAAAG | 0.00626
CCACGTAG | -0.236
ATCACCCC | 0.195
AACTTATC | 0.131
GCGCGTCC | -0.0582
CCTAGCCG | -0.121
CTAAAAAC | -0.238
AGCCCAGA | 0.0274
GAGGTTCA | 0.0639
ACAACAGA | -0.145
ATAGGCAG | 0.128
CGTACTTC | 0.144
ACATATCG | 0.0966
TACCCGAA | 0.115

Random excerpt: 6 entries already listed, in no set order.
Sequence | PBM E-score
ACTTCTAG | -0.232
AGACTCAC | -0.217
GCATTACC | -0.113
CAGCGCCA | -0.192
ACATGTTC | 0.0124
CCTATCGA | 0.0497
